No constants are given. Whether binding was seen depends on the method and setting. Some binding calls cover weakened binding; strength is not graded here.
B1: positive control antibody OPI (humanized antibody SBT-002e in WO 2017083525) (antibody, V domains shown)
VH: QVTLKESGPALVKPTQTLTLTCTFSGFSLSTSGMGVGWIRQPPGKALEWLAHIWWDDDKFYNPSLKSRLTISKDTSKNQVVLTMTNMDPVDTATYYCARLTGTRYFDYWGQGTTVTVSS
VL: DVQMTQSPSSLSASVGDRVTITCKASQDINKFIAWYQQKPGKAPKLLIHYTSTLQPGIPSRFSGSGSGRDYTFTISSLQPEDIATYYCLQYGNLWTFGGGTKVEIK
notes: also called Benchmark OPI
B2: chimeric antibody 69B1 (antibody, human IgG1, kappa, V domains shown)
VH: QIQLVQSGPELKKPGETVKISCKASGYTFTDYSMNWVKQAPGKGLKWMGWLNTETGEPIYADDFKGRFVFSLETSASTAYLEINNLNDEDTATYFCAREAIYYGTSYVLDYWGQGTSVTVSS
VL: DIVLTQSPASLAVSLGQRATISCRASESVEYYGTNFMQWYQQKPGQPPKLLIYSASNVESGVPARFSGSGSGTDFSLNIHPVEEDDIAVYFCQQSRKDPSTFGEGTNLEIKR
B3: chimeric antibody 72G8 (antibody, human IgG1, kappa, V domains shown)
VH: EVQLQQSGAELARPGASVMLSCKASGYTFTSYWMQWLKQRPGQGLEWIGAIYPGDGDTRYTQKFKGKATLTADKSSSTAYMQLSSLASEDSAVYYCVRDDGLYYAMDYWGQGTSVTVSS
VL: QIVLTQSPTIMSASLGERVTMTCTASSSVSSSYLHWYQQKPGSSPKLWIYSTSNLASGVPARFSGSGSGTSYSLTISSMEAEDAATYYCHQYHRSPPTFGGGTKLEIKR
B4: chimeric antibody 3C4 (antibody, human IgG1, kappa, V domains shown)
VH: QVQLQQSGPELVKPGASVTISCKASDYSFTNYYIHWVKQRPGQGLEWIGWIYPGNVITKYHEKFKGKAILTADTSSTTAYMQLNSLTSEDSAVYFCARSRATGYFDYWGQGTTLTVSS
VL: DIQMTQTTSSLSASLGDRVTISCRASQDIRNYLNWFQQKPDGTIKLLIYYTSRLHSGVPSRFSGSGSGTDYSLTISNLEQEDMATYFCQQFNTLPWTFGGGTKLEIKR

Biological target: CYNO-TNFR2-His (cynomolgus monkey TNFR2, His tag) (cynomolgus monkey)
Experiment: BLI (ForteBio), summary of Table 2

binding, binds:
B1
B2
B3
B4

— US20240026019A1 (Innovent, published 2024)
